Laboratory results reported in PubChem BioAssay AID1487 (National Center for Advancing Translational Sciences (NCATS), 2009).
Some of the results follow. Shown are side measurements of this screen, not its main read-out; they come without a call. The list favours compounds with an active or inconclusive main result. The note in brackets gives the kind of curve behind each potency; many fits are weak.

Assay: qHTS Assay for Modulators of Lamin A Splicing
Settings: HeLa LMNA splicing GFP/RFP minigene ratio, 48 h
Procedure, shortened: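 S3 HeLa cells stably expressing lamin A-EGFP splicing minigene plus DsRed2, 600 cells/well, 48 h compound exposure at 37C. Laser-scanning cytometry; analysed as GFP (500-530 nm)/RFP (575-640 nm) total intensity ratio; 0.5% DMSO vehicle.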

[1] = measured here: RFP viability control channel
[2] = measured here: GFP splicing reporter channel

Structure (SMILES)	AC50 [1]	AC50 [2]
C=CC(=O)Nc1ccc(Br)cc1	11.2 µM [rising, single point]	–
COc1ccc(OC(C)C(=O)Nc2ccc([N+](=O)[O-])cc2)cc1 (configuration not stated)	1.58 µM [rising, single point]	1.78 µM [rising, partial curve]
Oc1ccc2ccccc2c1N=Nc1ccccn1	17.8 µM [rising, partial curve]	2.82 µM [rising, full curve, poor fit]
Cn1c(SCC(=O)N2CCCC2)nc2ccccc21	3.16 µM [falling, partial curve, poor fit]	0.00316 µM [falling, full curve, poor fit]
O=C(COc1ccc(Cl)cc1)N1CCN(C(=O)c2cccs2)CC1	–	0.00631 µM [rising, full curve, poor fit]
CCOc1ccc(-c2nc(N)ncc2-c2ccccc2)c(O)c1	15.8 µM [rising, single point]	–
COc1ccc(OC)c(NC(=O)CSc2ccc3ccccc3c2)c1	17.8 µM [rising, single point]	14.1 µM [rising, single point]
O=C(NCc1cccnc1)c1ccc(NC(=O)c2cccc([N+](=O)[O-])c2)cc1	–	5.62 µM [rising, single point]
Cc1cc2c(c(SCC(=O)Nc3ccc(C)c(C)c3)n1)C(=O)OC2	7.94 µM [falling, partial curve]	–
COc1cccc(/C=N/NC(=O)CNC(=O)C2COc3ccccc3O2)c1O (configuration not stated)	31.6 µM [rising, single point]	–
COc1ccc2ncc(S(=O)(=O)c3ccccc3)c(N3CCN(c4ccccc4)CC3)c2c1	–	31.6 µM [rising, single point]
CC(C)(C)NS(=O)(=O)c1ccc(Oc2ncc(C(F)(F)F)cc2Cl)cc1	15.8 µM [rising, single point]	–
N#Cc1cccc(-c2nc(NCCN3CCOCC3)c3ccccc3n2)c1	–	10 µM [falling, partial curve, poor fit]
CSc1nnc2c3ccccc3n(CCc3ccccc3)c2n1	2.82 µM [rising, full curve]	3.55 µM [rising, full curve, poor fit]
O=C(NN1CCCCC1)c1cccc2ccccc12	0.398 µM [falling, partial curve]	35.5 µM [falling, partial curve, poor fit]
O=C(c1cccs1)N1CCN(c2nnc(-c3ccccc3)c3ccccc23)CC1	10 µM [falling, single point]	–

Looked up by structure from the entries so far:
Structure (SMILES)	AC50 [1]	AC50 [2]
CC(C)(C)NS(=O)(=O)c1ccc(Oc2ncc(C(F)(F)F)cc2Cl)cc1	15.8 µM [rising, single point]	–
COc1ccc(OC(C)C(=O)Nc2ccc([N+](=O)[O-])cc2)cc1 (configuration not stated)	1.58 µM [rising, single point]	1.78 µM [rising, partial curve]
